Data from PubChem BioAssay AID330 (DTP/NCI, 2004).
The list does not hold the whole screen: it gathers tests that were run many times, whatever their T/C, doses with no T/C, and many T/C values between a quarter and a half above the control. Other doses and runs of a compound stand elsewhere. T/C gives the treated animals as a percentage of the vehicle group. Some doses have a count of surviving animals in place of a T/C: the source holds a T/C of zero for them, seemingly a mark for toxic or unscored doses. Some survivor counts are full or nearly so, which does not show that the dose was tolerated: survival well below the control is almost never listed, so the zero probably covers shortened survival too. Counts of survivors are from the toxicity check (mostly the fifth day) where no day follows; animals may have died later. Schedule codes are those of the source, taken here to give the interval after Q, in days (D) or hours (H), and the number of doses after X. Some entries were tested several times; the results are listed from low to high. Where survival is the endpoint, the PubChem record calls one and a half times the control and up active, and a quarter to a half above the control has no call in these data; cut-offs in other NCI protocols can differ. Some T/C values are followed by the survivors on the day toxicity was checked, most often the fifth; without a count, all were alive then. Counts like (3×) give the number of equal values in this list.

Test system: P388 leukemia ip, CD2F1 mice, survival T/C
Assay: NCI In Vivo Anticancer Drug Screen. Data for tumor model P388 Leukemia (intraperitoneal) in CD2F1 (CDF1) mice
Conditions: T/C endpoint: median survival time, higher T/C = longer survival
[1] = dose: 50.0 mg/kg/injection, schedule: Q01DX009 (ip), vehicle: Klucel (hydroxypropylcellulose) (HPC)
[2] = dose: 100.0 mg/kg/injection, schedule: Q01DX009 (ip), vehicle: Klucel (hydroxypropylcellulose) (HPC)

## CN(Cc1cnc2nc(N)nc(N)c2n1)c1c(Cl)cc(C(=O)NC(CCC(=O)O)C(=O)O)cc1Cl (configuration not stated)
dose: 50.0 mg/kg/injection, schedule: Q01DX001 (ip), vehicle: Klucel (hydroxypropylcellulose) (HPC), evaluated on day 30
  T/C: 97, 101, 105 [2 of 3 alive], 112, 115, 116, 121 (2×), 122, 123, 124, 125, 125 [5 of 6 alive], 126, 127, 128 (2×), 130, 133 (2×), 134 (2×), 135 (2×), 138, 147, 150 (2×), 155 % of control
dose: 50.0 mg/kg/injection, schedule: Q01DX001 (ip), vehicle: Klucel (hydroxypropylcellulose) (HPC), evaluated on day 35
  T/C: 112 % of control [5 of 6 alive]
dose: 50.0 mg/kg/injection, schedule: Q01DX001 (ip), vehicle: Klucel (hydroxypropylcellulose) (HPC)
  survivor count: 3 of 3 and 6 of 6
dose: 50.0 mg/kg/injection, schedule: Q01DX005 (ip), vehicle: Klucel (hydroxypropylcellulose) (HPC), evaluated on day 30
  T/C: 132, 144 [5 of 6 alive], 153, 159, 162, 163, 164, 168, 170, 171, 172 (2×), 173 (2×), 175, 176 (2×), 178, 182 (2×), 187, 191, 192 (2×), 194, 196, 197, 200 (2×), 205 [5 of 6 alive], 208, 211, 216 % of control
dose: 50.0 mg/kg/injection, schedule: Q01DX005 (ip), vehicle: Klucel (hydroxypropylcellulose) (HPC), evaluated on day 35
  T/C: 159 % of control
dose: 50.0 mg/kg/injection, schedule: Q01DX005 (ip), vehicle: Klucel (hydroxypropylcellulose) (HPC)
  survivor count: 3 of 3
dose: 50.0 mg/kg/injection, schedule: Q01DX005 (iv), vehicle: suspension in saline
  T/C: 137 % of control
[1]
  T/C: 113, 125, 163, 169 (2×), 170, 177, 182, 190, 194, 199, 205, 206, 210, 211, 212, 214, 218, 222, 226 [5 of 6 alive], 230 (2×), 235, 236 (2×), 239, 245 (2×), 247, 249, 257, 273, 286 % of control
  survivor count: 3 of 3 and 6 of 6
dose: 50.0 mg/kg/injection, schedule: Q04DX002 (ip), vehicle: Klucel (hydroxypropylcellulose) (HPC)
  T/C: 109 [5 of 6 alive], 112, 116 (2×), 121, 126, 127, 128 (2×), 133, 134 (2×), 136 (2×), 138, 141, 142, 143, 144, 145 (2×), 147 (4×), 148, 150, 153 (3×), 155 (2×), 156, 161 % of control (2×)
dose: 50.0 mg/kg/injection, schedule: Q04DX003 (ip), vehicle: Klucel (hydroxypropylcellulose) (HPC), evaluated on day 30
  T/C: 123, 125, 128, 130 [5 of 6 alive], 131, 133, 134, 135 (2×), 137 [5 of 6 alive], 140 (2×), 141, 142 (2×), 144, 146, 149, 152 (2×), 153, 154, 155, 156, 159, 160, 163 (2×), 165, 172, 175, 177 (2×), 178, 180 % of control
dose: 50.0 mg/kg/injection, schedule: Q04DX003 (ip), vehicle: Klucel (hydroxypropylcellulose) (HPC), evaluated on day 35
  T/C: 159 % of control
dose: 100.0 mg/kg/injection, schedule: Q01DX001 (ip), vehicle: Klucel (hydroxypropylcellulose) (HPC), evaluated on day 30
  T/C: 100, 108, 109, 110, 112, 122, 125 (2×), 127, 128, 129, 131, 132, 133 (3×), 135, 137, 139, 140, 141, 147, 150, 155 (3×), 156, 157 % of control (2×)
dose: 100.0 mg/kg/injection, schedule: Q01DX001 (ip), vehicle: Klucel (hydroxypropylcellulose) (HPC), evaluated on day 35
  T/C: 129 % of control
dose: 100.0 mg/kg/injection, schedule: Q01DX001 (ip), vehicle: Klucel (hydroxypropylcellulose) (HPC)
  survivor count: 3 of 3 and 6 of 6
dose: 100.0 mg/kg/injection, schedule: Q01DX005 (ip), vehicle: Klucel (hydroxypropylcellulose) (HPC), evaluated on day 30
  T/C: 92, 142, 152, 153, 158, 171 (2×), 173 [2 of 3 alive], 174 (2×), 176, 181 (2×), 182, 186, 192 (2×), 195 (2×), 199, 200, 203, 210, 210 [5 of 6 alive], 213, 214, 221, 235, 238 % of control
dose: 100.0 mg/kg/injection, schedule: Q01DX005 (ip), vehicle: Klucel (hydroxypropylcellulose) (HPC), evaluated on day 35
  T/C: 193 % of control
dose: 100.0 mg/kg/injection, schedule: Q01DX005 (ip), vehicle: Klucel (hydroxypropylcellulose) (HPC)
  survivor count: 3 of 3 and 6 of 6
[2]
  T/C: 86, 86 [5 of 6 alive], 88 (2×), 92, 94, 96 [5 of 6 alive], 97, 98, 100 (2×), 101, 104, 106, 110, 113, 115, 171, 182, 185, 192, 201, 205, 208, 210, 223, 250, 261, 265 [2 of 3 alive], 285 % of control
  survivor count: 5 of 6, 3 of 3, 6 of 6
dose: 100.0 mg/kg/injection, schedule: Q04DX002 (ip), vehicle: Klucel (hydroxypropylcellulose) (HPC)
  T/C: 121, 125 [5 of 6 alive], 128, 133, 134, 135 (2×), 137, 139, 141, 144, 146, 147 (3×), 148, 150 (2×), 151, 154 (4×), 155, 156, 157, 159, 162, 168, 171, 175 (2×), 176, 178, 179 % of control
dose: 100.0 mg/kg/injection, schedule: Q04DX003 (ip), vehicle: Klucel (hydroxypropylcellulose) (HPC), evaluated on day 30
  T/C: 132, 136, 137, 144 (2×), 145, 146 (2×), 149, 150 (2×), 151, 153, 157, 159, 160, 162, 163, 168, 169 (2×), 170, 171, 173, 176, 178, 180 (2×), 188 (3×), 189, 190, 194, 203 % of control
